Measured values published in patent US9120727B2, “Process for the preparation of pleuromutilins” (NABRIVA THERAPEUTICS AG, priority 2010, dated 2015).
Some entries share one result that the patent states for a list of compounds.

Assay: Hygroscopicity (water uptake) of crystalline salts
Format: physicochemical
Details: between 0-80% relative humidity

Row | Structure (SMILES) | water uptake (hygroscopicity)
1 | C=C[C@]1(C)C[C@@H](OC(=O)CS[C@@H]2CC[C@@H](N)C[C@H]2O)[C@]2(C)C(C)CC[C@]3(CCC(=O)[C@H]32)[C@@H](C)[C@@H]1O (stereo partly drawn) [Acetate (Form B) crystalline, 14-O-{[(1R,2R,4R)-4-Amino-2-hydroxy-cyclohexyl-sulfanyl]-acetyl}-mutilin acetate, crystalline Form B] | below 2%
2 | C=C[C@]1(C)C[C@@H](OC(=O)CS[C@@H]2CC[C@@H](N)C[C@H]2O)[C@]2(C)C(C)CC[C@]3(CCC(=O)[C@H]32)[C@@H](C)[C@@H]1O (stereo partly drawn) [L-Lactate crystalline, 14-O-{[(1R,2R,4R)-4-Amino-2-hydroxy-cyclohexylsulfanyl]-acetyl}-mutilin L-lactate, crystalline Form 1] | below 2%
